# The list shows a part of the results.
# Target: T1, OsSMF1 (Oryza sativa, UniProt Q6ZLB0 1-436)
# T1 sequence: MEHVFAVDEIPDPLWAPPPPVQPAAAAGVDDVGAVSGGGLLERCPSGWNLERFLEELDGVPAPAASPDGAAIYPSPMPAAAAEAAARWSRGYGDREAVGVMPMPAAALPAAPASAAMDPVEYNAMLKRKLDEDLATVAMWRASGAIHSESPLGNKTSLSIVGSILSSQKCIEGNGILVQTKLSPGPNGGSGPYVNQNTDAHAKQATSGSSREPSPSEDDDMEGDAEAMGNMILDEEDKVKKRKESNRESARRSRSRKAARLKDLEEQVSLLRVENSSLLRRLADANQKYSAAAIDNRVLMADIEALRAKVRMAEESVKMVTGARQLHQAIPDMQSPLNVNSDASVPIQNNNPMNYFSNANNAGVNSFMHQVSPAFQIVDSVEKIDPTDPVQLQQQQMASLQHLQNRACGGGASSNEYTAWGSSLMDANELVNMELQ
# Assay: protein-binding microarray (RPBM); PBS, 2% BSA, 51.3 ng/ul salmon testes DNA, 50 uM zinc acetate, 200 nM TF, 25 C, 1 h; high values mean tight binding
# Conditions: protein: recombinant; tags: N-terminal polyhistidine and DsRed monomer fusion (pET32a); chain copies: 2; label: CyDye5-dUTP incorporated in the synthesized complementary strand; 3' TTTTT single-stranded linker to array surface; dsDNA, one strand shown
# Outline: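 Per-feature fluorescence intensity (arbitrary units), read on an Axon 4000B scanner, is the binding signal. Transcription factors carrying an N-terminal polyhistidine tag and DsRed fusion were expressed in E. coli BL21-CodonPlus and purified on Ni–NTA. A custom Agilent array, made double-stranded by primer extension with Cy5-dUTP and blocked with 2% BSA, was incubated with 200 nM protein in PBS, 2% BSA, salmon testes DNA and 50 µM zinc acetate at 25 °C for 1 h and then washed.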
row,Sequence,binding signal
1,CATAGACACATGAGGATCCACGTGTTATAAATACAGTGTGCGGAGTCACCTAGTGCAG,10300 fluorescence intensity (a.u.)
2,TATTGGAGGTAAGCCATACATTCTCATCCTGCTATCTAACCGGAGTCACCTAGTGCAG,3330 fluorescence intensity (a.u.)
3,GCGGGTGCCATCGTGGGCTGATCTGGTGGCAGCAAGGGCTCGGAGTCACCTAGTGCAG,3310 fluorescence intensity (a.u.)
4,TCTGCAGCACCCGACGACGCGCATCCCTCTCACGACCACGCGGAGTCACCTAGTGCAG,4090 fluorescence intensity (a.u.)
5,TATATTTCATTAATATAAATAAAATTAAAATGTTACTTAACGGAGTCACCTAGTGCAG,25600 fluorescence intensity (a.u.)
6,ACAAAGCTTAAGCTCAGTGTCAGTGTCACAGTGTCAGACACGGAGTCACCTAGTGCAG,3520 fluorescence intensity (a.u.)
7,ATTCGTAGTAATAAGATGTGCCACATCCGCTACGTTGTTTCGGAGTCACCTAGTGCAG,3940 fluorescence intensity (a.u.)
8,CTGACGAATATACAGGAGGGAACCGAATGGCGCGCAATTGCGGAGTCACCTAGTGCAG,21700 fluorescence intensity (a.u.)
9,AGGTAAGTGTGTTGTGTGTGTGAGGATGCAGCATGCTTACCGGAGTCACCTAGTGCAG,4190 fluorescence intensity (a.u.)
10,TTCCCGTCCGAGCATTTGGCACGTATTAGTGACACTAACTCGGAGTCACCTAGTGCAG,4130 fluorescence intensity (a.u.)
11,AGGATTCAATTTGGACTTTGGTGGAGGGGAGGGGCTGCTGCGGAGTCACCTAGTGCAG,8930 fluorescence intensity (a.u.)
12,CACAGGGCCGTGCACCGCCTGAGTCATGCCACACAGTGCCCGGAGTCACCTAGTGCAG,7290 fluorescence intensity (a.u.)
13,AGCCGTCTCAGCCCCGGCGCCGTCATCTTCCGTCTTAGCCCGGAGTCACCTAGTGCAG,4410 fluorescence intensity (a.u.)
14,ATATGCACGCACCGTGCAGTAACAGTAGTAAGTAGAGGGACGGAGTCACCTAGTGCAG,38200 fluorescence intensity (a.u.)
15,AGCTTCGGAGGCTGTACACGTAATGTGGTCGCTTGTTTGTCGGAGTCACCTAGTGCAG,9220 fluorescence intensity (a.u.)
16,GTGTTTGTGACGACACGACACCACACGAGAGGAGAGAGAGCGGAGTCACCTAGTGCAG,4330 fluorescence intensity (a.u.)
17,CGAAGCATAGGCACACCGCACACGTGTACACCGGACGTGCCGGAGTCACCTAGTGCAG,16900 fluorescence intensity (a.u.)
18,TTTGATGACCGGGCTACCACGTCAGCATACCTAAACCAAACGGAGTCACCTAGTGCAG,13800 fluorescence intensity (a.u.)
19,AATACCTTACCTGTGTACAAAGTGTACAACCCAAGCCCACCGGAGTCACCTAGTGCAG,3490 fluorescence intensity (a.u.)
20,GATGGGCTTCCTCAACGGCCCAAGTCACCCAGATGGGCCTCGGAGTCACCTAGTGCAG,3900 fluorescence intensity (a.u.)
21,TTCTCCTTCTCCCACGTCCTCTCTCTCCCTGACCCTGAGCCGGAGTCACCTAGTGCAG,7180 fluorescence intensity (a.u.)
22,TACCTCATCGGCGATCGGCCTTGCCCGCCTTGTCCAACCTCGGAGTCACCTAGTGCAG,3520 fluorescence intensity (a.u.)
23,GATGCATGATGTCTATAATTATACCACATGCGAGTAAGCACGGAGTCACCTAGTGCAG,3770 fluorescence intensity (a.u.)
24,GGTCCATTTCCATATAGAAATATAGATGAGATGTACATATCGGAGTCACCTAGTGCAG,21700 fluorescence intensity (a.u.)
25,TTACAGCTCACTCCTCTCCTCTCCTGACATGTACACACCCCGGAGTCACCTAGTGCAG,4700 fluorescence intensity (a.u.)
26,ACTGTGCCATACTACCTTCCGCGGGTGCACAAGCACACCTCGGAGTCACCTAGTGCAG,3510 fluorescence intensity (a.u.)
27,TGCCTGATGTAACCACACGTGGCATTGTAAACCATGCAAACGGAGTCACCTAGTGCAG,9460 fluorescence intensity (a.u.)

# Reformatted tab-delimited: part of the list above.
row	Sequence	binding signal
6	ACAAAGCTTAAGCTCAGTGTCAGTGTCACAGTGTCAGACACGGAGTCACCTAGTGCAG	3520 fluorescence intensity (a.u.)
24	GGTCCATTTCCATATAGAAATATAGATGAGATGTACATATCGGAGTCACCTAGTGCAG	21700 fluorescence intensity (a.u.)

# Shown as tab-separated lines: part of the list above.
row	Sequence	binding signal
23	GATGCATGATGTCTATAATTATACCACATGCGAGTAAGCACGGAGTCACCTAGTGCAG	3770 fluorescence intensity (a.u.)
24	GGTCCATTTCCATATAGAAATATAGATGAGATGTACATATCGGAGTCACCTAGTGCAG	21700 fluorescence intensity (a.u.)

# The results go on.

row,Sequence,binding signal
1,AAAATCGGTGCAATTTTCCGACACGTGCGAAAGACCTAAACGGAGTCACCTAGTGCAG,3750 fluorescence intensity (a.u.)
2,CGAACCGCACGTGCGCGCGCGCTCCACGCACACCCCAAACCGGAGTCACCTAGTGCAG,4700 fluorescence intensity (a.u.)
3,CACCTCAGCTCGCCAGCAGCAACCACGGCGGCGCTTCGGACGGAGTCACCTAGTGCAG,14400 fluorescence intensity (a.u.)
4,GTGGCAAATAGTTAAAAGCCACCGAAACTGAGACAGCTACCGGAGTCACCTAGTGCAG,3600 fluorescence intensity (a.u.)
5,TTTATGCACGTTTGAGTTTGTGTACATACGACATTGATCACGGAGTCACCTAGTGCAG,3820 fluorescence intensity (a.u.)
6,TAATAATTCCTACTCCTACATGGCTATATACTACTCCGGACGGAGTCACCTAGTGCAG,3230 fluorescence intensity (a.u.)
7,TAGAGAAACCGGGTCACCAATGATGCCACGCATCGCTGCCCGGAGTCACCTAGTGCAG,5820 fluorescence intensity (a.u.)
8,GGGAGGAAGAAGAAAGGGAGAGAGAGGGGATGACATGTGGCGGAGTCACCTAGTGCAG,5680 fluorescence intensity (a.u.)
9,TATGGGTGGTTTCGCTAACGTGGCAGGGGAGGGCGGCGACCGGAGTCACCTAGTGCAG,4900 fluorescence intensity (a.u.)
10,GATTAGTGGGCCCATTTATAGGTAATGACATGTATGTTTTCGGAGTCACCTAGTGCAG,4230 fluorescence intensity (a.u.)
11,CTTCGCTCCGTCGCCGCTCGCCCTTCTCTCCTGGCAATGTCGGAGTCACCTAGTGCAG,34000 fluorescence intensity (a.u.)
12,GCTCAGATCTCTGAATCCACGTGCTCCCCTCCACTGACCCCGGAGTCACCTAGTGCAG,5300 fluorescence intensity (a.u.)
13,GATGGCAAGTAAGTGCACACTCAGCTTTCTTCACTTCATTCGGAGTCACCTAGTGCAG,3280 fluorescence intensity (a.u.)
14,GGCCCGGCTCCTCCTCCTAACGTGGCGGCATGGCGCCATGCGGAGTCACCTAGTGCAG,6010 fluorescence intensity (a.u.)
15,CACGTCATCGACACGATAGTGACGGAGCACCGCAAGCTCTCGGAGTCACCTAGTGCAG,6570 fluorescence intensity (a.u.)
16,TAAGTCAACCTTGCGTCCCCTGTGCAGGCCACAGTCTGATCGGAGTCACCTAGTGCAG,22300 fluorescence intensity (a.u.)
17,TCATAAACCGTGGCTATCTCGCGTCAGCGTGCATGCTTAACGGAGTCACCTAGTGCAG,3660 fluorescence intensity (a.u.)
18,GGTGATTGCATTTGCTGATGTCAGGTATGCCTATTATATTCGGAGTCACCTAGTGCAG,14700 fluorescence intensity (a.u.)
19,GTAGAAGTCTGTATCGTCATGCGTCAACATATCATGATATCGGAGTCACCTAGTGCAG,4460 fluorescence intensity (a.u.)
20,GCATCACGACAGGCCTTCTCTAGCTCCTGCCACGCATGCCCGGAGTCACCTAGTGCAG,4770 fluorescence intensity (a.u.)
21,GTGGTTTTGGGAGTTGAGGGATAGGTTATACCCGATTTTACGGAGTCACCTAGTGCAG,11700 fluorescence intensity (a.u.)
22,ACCGATAGGTGTGACACGTCCCCGTCGCCAAGCGCCACCACGGAGTCACCTAGTGCAG,8250 fluorescence intensity (a.u.)
23,AGAAATCTGTTGCCTAGTGCACCGTAACCTGATTGATAATCGGAGTCACCTAGTGCAG,3570 fluorescence intensity (a.u.)
24,AAACTGGCACTAACATGAATTAGTTTCGTCAGCGAAATTCCGGAGTCACCTAGTGCAG,4280 fluorescence intensity (a.u.)
25,TCTCACCGAGCTTCTTGGAGAGTAAGAAACTGTGATTCTACGGAGTCACCTAGTGCAG,29700 fluorescence intensity (a.u.)
26,AGATCTTAACTAAAATTCTTTCAGATCAATGTGATTCACGCGGAGTCACCTAGTGCAG,3540 fluorescence intensity (a.u.)
27,TTCCTCTTCACGTGACTGACATGTGGGCCCCACTCAGCCTCGGAGTCACCTAGTGCAG,3600 fluorescence intensity (a.u.)

# — PMC7819943, “Rice protein-binding microarrays: a tool to detect cis-acting elements near promoter regions in rice”
